# Laboratory results reported in the supplement of paper PMC8728848.
# The other results are listed elsewhere or left out.
# B1: GS13599A-bth-520-23-520 (Bacteroides thetaiotaomicron) (protein)
# chain: SEDTMDRINKDHDHTTSVASRFILADVITSTAFSNASGDINTYASSYIEYEVGVDNQLYYAEVRENEPSSSSTFNNSWNGIYSSLKNARIIIDQCGEGGRDHGNDVTRGMAEVMAAYNCALIADFFGDAPCSQAALVDEKGSPVYMTPKMDTQQEIYTQIISYLDDAIANLQKEDLADVTEQDFLYAGDADKWLKFAYGLKARYTMRLINRSSNKSADYEKVLDYVSKSFTSADDQAAFDIYDSNNINPFYGFYNSRAGFGASTSLGTKLLAYNDPRANRAFFTPIVDKKRSQVAANDPSLVPAPNGSPDQSTSKYGISAFVYAKTAPTLLMSYHELMFLKAEALCRLNRDAEDALKEAVVAGLLNAENSISIAIKELGSGLNTNSSEVITETSAGKYFDDVVKAKYAANPLQETMIQKYLAMWGASGEATETYNDFRRMKGLNENFITLTNPNNSSKFPLRYPYGNSDTAANPEVKAAYGNGDYVYSEPVWWAGGSR
# Experiments:
# Experiment in all cases: glycan array binding signal (z-score within array); higher = stronger binding
# Details in all cases: glycan notation: IUPAC condensed, linker removed
# [1] = molecular target: Neu5Ac(a2-6)Gal(b1-3)GlcNAc(b1-3)[Gal(b1-4)GlcNAc(b1-6)]Gal(b1-4)Glc
# Procedure, shortened: (§1)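 Columns mapping to the same glycan were averaged after glycan names were converted to IUPAC-condensed notation. The data come from 3228 arrays in the Consortium for Functional Glycomics database, limited to those with an available protein sequence. Binding is reported as a within-array Z-score averaged across arrays of one protein sequence and across linkers.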
# [2] = molecular target: Neu5Ac(a2-6)Gal(b1-4)Glc
# Procedure, shortened: as §1
# [3] = molecular target: Neu5Ac(a2-6)Gal(b1-4)GlcNAc
# Procedure, shortened: as §1
# [4] = molecular target: Neu5Ac(a2-6)Gal(b1-4)GlcNAc(b1-2)Man
# Procedure, shortened: as §1
# [5] = molecular target: Neu5Ac(a2-6)Gal(b1-4)GlcNAc(b1-2)Man(a1-3)Man(b1-4)GlcNAc(b1-4)GlcNAc
# Procedure, shortened: as §1
# [6] = molecular target: Neu5Ac(a2-6)Gal(b1-4)GlcNAc(b1-2)Man(a1-3)[Gal(b1-4)GlcNAc(b1-2)Man(a1-6)]Man(b1-4)GlcNAc(b1-4)GlcNAc
# Procedure, shortened: as §1
# [7] = molecular target: Neu5Ac(a2-6)Gal(b1-4)GlcNAc(b1-2)Man(a1-3)[GlcNAc(b1-2)Man(a1-6)]Man(b1-4)GlcNAc(b1-4)GlcNAc
# Procedure, shortened: as §1
# [8] = molecular target: Neu5Ac(a2-6)Gal(b1-4)GlcNAc(b1-2)Man(a1-3)[GlcNAc(b1-4)][Neu5Ac(a2-6)Gal(b1-4)GlcNAc(b1-2)Man(a1-6)]Man(b1-4)GlcNAc(b1-4)GlcNAc
# Procedure, shortened: as §1
# [9] = molecular target: Neu5Ac(a2-6)Gal(b1-4)GlcNAc(b1-2)Man(a1-3)[Man(a1-6)]Man(b1-4)GlcNAc(b1-4)GlcNAc
# Procedure, shortened: as §1
# [10] = molecular target: Neu5Ac(a2-6)Gal(b1-4)GlcNAc(b1-2)Man(a1-3)[Neu5Ac(a2-3)Gal(b1-4)GlcNAc(b1-2)Man(a1-6)]Man(b1-4)GlcNAc(b1-4)GlcNAc
# Procedure, shortened: as §1
# [11] = molecular target: Neu5Ac(a2-6)Gal(b1-4)GlcNAc(b1-2)Man(a1-3)[Neu5Ac(a2-6)Gal(b1-4)GlcNAc(b1-2)Man(a1-6)]Man(b1-4)GlcNAc(b1-4)GlcNAc
# Procedure, shortened: as §1
# [12] = molecular target: Neu5Ac(a2-6)Gal(b1-4)GlcNAc(b1-2)Man(a1-3)[Neu5Ac(a2-6)Gal(b1-4)GlcNAc(b1-2)Man(a1-6)]Man(b1-4)GlcNAc(b1-4)[Fuc(a1-6)]GlcNAc
# Procedure, shortened: as §1
# [13] = molecular target: Neu5Ac(a2-6)Gal(b1-4)GlcNAc(b1-2)Man(a1-6)Man(b1-4)GlcNAc(b1-4)GlcNAc
# Procedure, shortened: as §1
# [14] = molecular target: Neu5Ac(a2-6)Gal(b1-4)GlcNAc(b1-2)Man(a1-6)[Gal(b1-4)GlcNAc(b1-2)Man(a1-3)]Man(b1-4)GlcNAc(b1-4)GlcNAc
# Procedure, shortened: as §1
# [15] = molecular target: Neu5Ac(a2-6)Gal(b1-4)GlcNAc(b1-2)Man(a1-6)[GlcNAc(b1-2)Man(a1-3)]Man(b1-4)GlcNAc(b1-4)GlcNAc
# Procedure, shortened: as §1
# [16] = molecular target: Neu5Ac(a2-6)Gal(b1-4)GlcNAc(b1-2)Man(a1-6)[Man(a1-3)]Man(b1-4)GlcNAc(b1-4)GlcNAc
# Procedure, shortened: as §1
# [17] = molecular target: Neu5Ac(a2-6)Gal(b1-4)GlcNAc(b1-2)[Neu5Ac(a2-6)Gal(b1-4)GlcNAc(b1-4)]Man(a1-3)[GlcNAc(b1-4)][Neu5Ac(a2-6)Gal(b1-4)GlcNAc(b1-2)[Neu5Ac(a2-6)Gal(b1-4)GlcNAc(b1-6)]Man(a1-6)]Man(b1-4)GlcNAc(b1-4)GlcNAc
# Procedure, shortened: as §1
# [18] = molecular target: Neu5Ac(a2-6)Gal(b1-4)GlcNAc(b1-2)[Neu5Ac(a2-6)Gal(b1-4)GlcNAc(b1-4)]Man(a1-3)[GlcNAc(b1-4)][Neu5Ac(a2-6)Gal(b1-4)GlcNAc(b1-4)Man(a1-6)]Man(b1-4)GlcNAc(b1-4)GlcNAc
# Procedure, shortened: as §1
# [19] = molecular target: Neu5Ac(a2-6)Gal(b1-4)GlcNAc(b1-2)[Neu5Ac(a2-6)Gal(b1-4)GlcNAc(b1-6)]Man(a1-6)[Neu5Ac(a2-6)Gal(b1-4)GlcNAc(b1-2)Man(a1-3)][GlcNAc(b1-4)]Man(b1-4)GlcNAc(b1-4)GlcNAc
# Procedure, shortened: as §1
# [20] = molecular target: Neu5Ac(a2-6)Gal(b1-4)GlcNAc(b1-3)Gal(b1-3)GlcNAc
# Procedure, shortened: as §1
# [21] = molecular target: Neu5Ac(a2-6)Gal(b1-4)GlcNAc(b1-3)Gal(b1-4)GlcNAc
# Procedure, shortened: as §1
# [22] = molecular target: Neu5Ac(a2-6)Gal(b1-4)GlcNAc(b1-3)Gal(b1-4)GlcNAc(b1-2)Man(a1-3)[Neu5Ac(a2-6)Gal(b1-4)GlcNAc(b1-3)Gal(b1-4)GlcNAc(b1-2)Man(a1-6)]GalNAc
# Procedure, shortened: as §1
# [23] = molecular target: Neu5Ac(a2-6)Gal(b1-4)GlcNAc(b1-3)Gal(b1-4)GlcNAc(b1-3)Gal(b1-4)GlcNAc
# Procedure, shortened: as §1
# [24] = molecular target: Neu5Ac(a2-6)Gal(b1-4)GlcNAc(b1-3)Gal(b1-4)GlcNAc(b1-3)Gal(b1-4)GlcNAc(b1-2)Man(a1-3)[Neu5Ac(a2-6)Gal(b1-4)GlcNAc(b1-3)Gal(b1-4)GlcNAc(b1-3)Gal(b1-4)GlcNAc(b1-2)Man(a1-6)]GalNAc
# Procedure, shortened: as §1
# [25] = molecular target: Neu5Ac(a2-6)Gal(b1-4)GlcNAc(b1-3)Gal(b1-4)GlcNAc(b1-3)GalNAc
# Procedure, shortened: as §1
# [26] = molecular target: Neu5Ac(a2-6)Gal(b1-4)GlcNAc(b1-3)Gal(b1-4)GlcNAc(b1-3)[Neu5Ac(a2-6)Gal(b1-4)GlcNAc(b1-3)Gal(b1-4)GlcNAc(b1-6)]GalNAc
# Procedure, shortened: as §1
# [27] = molecular target: Neu5Ac(a2-6)Gal(b1-4)GlcNAc(b1-3)Gal(b1-4)GlcNAc(b1-6)[Gal(b1-3)]GalNAc
# Procedure, shortened: as §1
# [28] = molecular target: Neu5Ac(a2-6)Gal(b1-4)GlcNAc(b1-3)Gal(b1-4)[Fuc(a1-3)]GlcNAc(b1-3)Gal(b1-4)[Fuc(a1-3)]GlcNAc
# Procedure, shortened: as §1
# [29] = molecular target: Neu5Ac(a2-6)Gal(b1-4)GlcNAc(b1-3)GalNAc
# Procedure, shortened: as §1
# [30] = molecular target: Neu5Ac(a2-6)Gal(b1-4)GlcNAc(b1-3)[Neu5Ac(a2-6)Gal(b1-4)GlcNAc(b1-6)]GalNAc
# Procedure, shortened: as §1
# [31] = molecular target: Neu5Ac(a2-6)Gal(b1-4)GlcNAc(b1-6)GalNAc
# Procedure, shortened: as §1
# [32] = molecular target: Neu5Ac(a2-6)Gal(b1-4)GlcNAc(b1-6)[Gal(b1-3)GlcNAc(b1-3)]Gal(b1-4)Glc
# Procedure, shortened: as §1
# [33] = molecular target: Neu5Ac(a2-6)Gal(b1-4)GlcNAc(b1-6)[Gal(b1-3)]GalNAc
# Procedure, shortened: as §1
# [34] = molecular target: Neu5Ac(a2-6)Gal(b1-4)GlcNAc6S
# Procedure, shortened: as §1
# [35] = molecular target: Neu5Ac(a2-6)GalNAc
# Procedure, shortened: as §1
# [36] = molecular target: Neu5Ac(a2-6)GalNAc(b1-4)GlcNAc
# Procedure, shortened: as §1
# [37] = molecular target: Neu5Ac(a2-6)GalNAc(b1-4)GlcNAc6S
# Procedure, shortened: as §1
# [38] = molecular target: Neu5Ac(a2-6)GlcNAc(b1-4)GlcNAc
# Procedure, shortened: as §1
binder,measurement,setting,value
B1,glycan array binding signal (z-score),[1],-1.01
same,glycan array binding signal (z-score),[2],-0.123
same,glycan array binding signal (z-score),[3],-0.724
same,glycan array binding signal (z-score),[4],-0.572
same,glycan array binding signal (z-score),[5],-0.803
same,glycan array binding signal (z-score),[6],0.028
same,glycan array binding signal (z-score),[7],0.659
same,glycan array binding signal (z-score),[8],-0.169
same,glycan array binding signal (z-score),[9],0.864
same,glycan array binding signal (z-score),[10],-0.584
same,glycan array binding signal (z-score),[11],-0.142
same,glycan array binding signal (z-score),[12],1.66
same,glycan array binding signal (z-score),[13],0.942
same,glycan array binding signal (z-score),[14],0.484
same,glycan array binding signal (z-score),[15],-0.32
same,glycan array binding signal (z-score),[16],-0.905
same,glycan array binding signal (z-score),[17],-1.03
same,glycan array binding signal (z-score),[18],-0.78
same,glycan array binding signal (z-score),[19],-0.669
same,glycan array binding signal (z-score),[20],-0.514
same,glycan array binding signal (z-score),[21],-1.27
same,glycan array binding signal (z-score),[22],0.513
same,glycan array binding signal (z-score),[23],-0.605
same,glycan array binding signal (z-score),[24],2.37
same,glycan array binding signal (z-score),[25],-0.961
same,glycan array binding signal (z-score),[26],-0.682
same,glycan array binding signal (z-score),[27],-0.505
same,glycan array binding signal (z-score),[28],0.213
same,glycan array binding signal (z-score),[29],-0.622
same,glycan array binding signal (z-score),[30],0.2
same,glycan array binding signal (z-score),[31],0.685
same,glycan array binding signal (z-score),[32],-0.52
same,glycan array binding signal (z-score),[33],0.937
same,glycan array binding signal (z-score),[34],-0.962
same,glycan array binding signal (z-score),[35],-1.6
same,glycan array binding signal (z-score),[36],-0.468
same,glycan array binding signal (z-score),[37],-1.6
same,glycan array binding signal (z-score),[38],0.611

# Some of the entries so far, tab-delimited.
binder	measurement	setting	value
B1	glycan array binding signal (z-score)	[11]	-0.142
same	glycan array binding signal (z-score)	[12]	1.66
